We go through two molecules from PMC3630084.

Chains of the proteins cited; added tags and fusions are not shown.
UniProt Q92879: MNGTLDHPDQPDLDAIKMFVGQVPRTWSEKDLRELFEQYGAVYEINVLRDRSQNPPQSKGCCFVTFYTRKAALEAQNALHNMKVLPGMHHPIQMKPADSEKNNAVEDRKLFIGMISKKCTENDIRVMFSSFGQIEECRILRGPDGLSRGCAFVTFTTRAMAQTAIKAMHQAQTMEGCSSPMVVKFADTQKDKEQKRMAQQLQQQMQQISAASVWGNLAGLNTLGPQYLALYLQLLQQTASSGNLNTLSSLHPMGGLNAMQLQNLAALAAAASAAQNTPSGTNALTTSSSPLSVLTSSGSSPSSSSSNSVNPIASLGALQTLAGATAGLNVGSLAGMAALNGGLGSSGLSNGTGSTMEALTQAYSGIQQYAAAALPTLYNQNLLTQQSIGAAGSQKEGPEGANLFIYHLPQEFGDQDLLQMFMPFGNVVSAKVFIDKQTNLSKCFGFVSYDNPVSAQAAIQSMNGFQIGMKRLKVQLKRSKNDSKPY
UniProt P05198: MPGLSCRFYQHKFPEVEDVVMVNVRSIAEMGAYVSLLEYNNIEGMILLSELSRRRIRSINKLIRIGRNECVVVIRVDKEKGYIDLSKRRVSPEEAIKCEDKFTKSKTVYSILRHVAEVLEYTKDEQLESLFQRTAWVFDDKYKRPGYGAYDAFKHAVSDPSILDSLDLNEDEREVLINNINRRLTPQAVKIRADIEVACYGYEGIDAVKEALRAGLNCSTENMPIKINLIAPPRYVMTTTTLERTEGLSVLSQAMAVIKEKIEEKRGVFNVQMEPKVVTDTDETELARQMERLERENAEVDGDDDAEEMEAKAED

The target of assay [1] is CUGBP1 (human (endogenous in primary human myoblasts and fibroblasts)) (UniProt Q92879). Put plainly: co-IP; 100 µg of cytoplasmic protein from control GFP-transfected DM1 myoblasts/fibroblasts; precipitated with CUGBP1 antibodies, probed with antibody to pS51-eIF2α; Trueblot protocol.
For assay [2] the target is unchanged. Put plainly: condition: only in SMAUG1-transfected DM1 myoblasts and fibroblasts; co-IP; 100 µg of cytoplasmic protein from SMAUG1-transfected DM1 myoblasts and fibroblasts; precipitated with CUGBP1 antibodies, probed with antibody to pS51-eIF2α; Trueblot protocol.
Assay [3] shares this target. Put plainly: co-IP; extracts from SMAUG1-V5-transfected normal and DM1 human myoblasts; anti-CUGBP1 3B1 antibody coupled to Dynabeads M-270 Epoxy, Dynabeads Co-Immunoprecipitation kit; SMAUG1 visualized with anti-V5-HRP.

No constants are given. Whether binding was seen depends on the method and setting. In cells and extracts the contact can be indirect. Some binding calls cover weakened binding; strength is not graded here. For part of these data: Sequences can lack the tags named with a protein.

Take “pS51-eIF2α (eukaryotic translation initiation factor eIF2α phosphorylated at S51) (from UniProt P05198 1-315)”: the binding entry in assay [1] is on record as “binds”; in assay [2], “no binding”.

B1: SMAUG1-V5 (human SMAUG1/SAMD4A) (protein, UniProt Q9UPU9 1-718)
chain: MMFRDQVGVLAGWFKGWNECEQTVALLSLLKRVSQTQARFLQLCLEHSLADCAELHVLEREANSPGIINQWQQESKDKVISLLLTHLPLLKPGNLDAKVEYMKLLPKILAHSIEHNQHIEESRQLLSYALIHPATSLEDRSALAMWLNHLEDRTSTSFGGQNRGRSDSVDYGQTHYYHQRQNSDDKLNGWQNSRDSGICINASNWQDKSMGCENGHVPLYSSSSVPTTINTIGTSTSTILSGQAHHSPLKRSVSLTPPMNVPNQPLGHGWMSHEDLRARGPQCLPSDHAPLSPQSSVASSGSGGSEHLEDQTTARNTFQEEGSGMKDVPAWLKSLRLHKYAALFSQMTYEEMMALTECQLEAQNVTKGARHKIVISIQKLKERQNLLKSLERDIIEGGSLRIPLQELHQMILTPIKAYSSPSTTPEARRREPQAPRQPSLMGPESQSPDCKDGAAATGATATPSAGASGGLQPHQLSSCDGELAVAPLPEGDLPGQFTRVMGKVCTQLLVSRPDEENISSYLQLIDKCLIHEAFTETQKKRLLSWKQQVQKLFRSFPRKTLLDISGYRQQRNRGFGQSNSLPTAGSVGGGMGRRNPRQYQIPSRNVPSARLGLLGTSGFVSSNQRNTTATPTIMKQGRQNLWFANPGGSNSMPSRTHSSVQRTRSLPVHTSPQNMLMFQQPEFQLPVTEPDINNRLESLCLSMTEHALGDGVDRTSTI
Consider B1, for which the binding entry in assay [3] is “binds”.
